These are yes or no findings as the source states them, for the method shown. Some binding calls cover weakened binding; strength is not graded here. Where a sequence is shown, tags or fusion partners need not be part of it.
Target: His–METTL5 (human) (UniProt Q9NRN9)
Experiment: co-purification (metal affinity, anion exchange, SEC); untagged TRMT112 coexpressed with His–METTL5 in E. coli BL21 (DE3); Ni-NTA (washes up to 1 M NaCl), HiTrap Q FF, Superdex 200 in 50 mM Tris-HCl pH 7.5, 200 mM NaCl, 1 mM TCEP

The chains behind the UniProt entries cited, without tags or fusion partners.
UniProt Q9NRN9: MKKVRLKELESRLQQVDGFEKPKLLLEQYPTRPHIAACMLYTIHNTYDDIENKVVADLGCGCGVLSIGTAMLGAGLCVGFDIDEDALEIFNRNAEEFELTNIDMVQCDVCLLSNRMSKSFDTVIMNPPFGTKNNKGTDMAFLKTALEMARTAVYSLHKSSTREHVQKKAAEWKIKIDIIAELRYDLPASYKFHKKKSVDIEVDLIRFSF

B1: TRMT112-C100A (of the purified TRMT112-C100A:His–METTL5 complex) (protein, UniProt Q9UI30 1-125)
chain: MKLLTHNLLSSHVRGVGSRGFPLRLQATEVRICPVEFNPNFVARMIPKVEWSAFLEAADNLRLIQVPKGPVEGYEENEEFLRTMHHLLLEVEVIEGTLQAPESGRMFPISRGIPNMLLSEEETES
- binding: binds

B2: WT-TRMT112 (of the purified WT-TRMT112:His–METTL5 complex) (protein, UniProt Q9UI30 1-125)
chain: MKLLTHNLLSSHVRGVGSRGFPLRLQATEVRICPVEFNPNFVARMIPKVEWSAFLEAADNLRLIQVPKGPVEGYEENEEFLRTMHHLLLEVEVIEGTLQCPESGRMFPISRGIPNMLLSEEETES
- binding: binds

Source: PMC13128453, “Complexoform-restricted covalent TRMT112 ligands that allosterically agonize METTL5” (Nature Chemical Biology, 2025)
